Assay results as given in PubChem BioAssay AID2685 (National Center for Advancing Translational Sciences (NCATS), 2010).
This is one part of the list. The main result of the screen is listed elsewhere. These columns were measured beside it and carry no call. Compounds called inactive in the main read-out are mostly missing here. Words in brackets tell the shape of the fitted curve; partial curves, single points and poor fits give uncertain potencies.

Test: qHTS Assay for Lipid Storage Modulators in Drosophila S3 Cells;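 on cell number change: cells counted by Cell Tracker Red CMTPX staining in the red channel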
Settings: BODIPY lipid droplet fluorescence, 18-24 h; for cell number change: measured here: cell count max response, cells fed with added oleic acid
Procedure, shortened: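 Laser-scanning cytometry quantifies lipid droplet accumulation (500–530 nm total intensity; droplet/cell object ratio) in oleic acid-fed (400 uM added) Drosophila S3 cells treated with a concentration series. 20 uM Triacsin C defined 100% inhibition.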

[1] = measured here: lipid fluorescence (Fed channel) AC50, cells fed with added oleic acid
[2] = measured here: cell number channel AC50, cells fed with added oleic acid

Compound: CCCCN(CCCC)S(=O)(=O)c1ccc2[nH]c(=O)[nH]c2c1
- AC50 [1]: 6.51 µM [rising, single point]

Compound: COc1cccc(CNc2ccc(F)c(Cl)c2)c1O
- cell number change: 95%
- AC50 [2]: 6.51 µM [falling, partial curve, poor fit]
- AC50 [1]: 1.64 µM [falling, partial curve, poor fit]

Compound: CCN(CC(=O)NCCc1ccc(S(N)(=O)=O)cc1)Cc1ccccc1
- cell number change: 17.6%
- AC50 [1]: 23.1 µM [rising, partial curve, poor fit]

Compound: Cc1ccc(S(=O)(=O)N(C)CC(=O)O/N=C(\N)c2cccc([N+](=O)[O-])c2)cc1
- AC50 [2]: 0.82 µM [falling, single point]

Compound: COc1ccc(S(=O)(=O)N(C)C)cc1NC(=O)Cc1c[nH]c2ccccc12
- cell number change: 48.3%
- AC50 [2]: 0.92 µM [rising, full curve]

Compound: COc1ccccc1CC(=O)Nc1ccc(S(=O)(=O)N2CCCCC2)cc1
- cell number change: 13.3%

Compound: CC(=O)Nc1ccc(OCc2cnc(Cl)s2)cc1
- cell number change: 75.2%
- AC50 [2]: 6.51 µM [falling, single point]
- AC50 [1]: 6.51 µM [falling, single point]

Compound: COc1ccccc1OCCn1c(=S)[nH]c2ccccc21
- cell number change: -18.3%
- AC50 [1]: 10.3 µM [falling, partial curve, poor fit]

Compound: CCN(C(=O)c1cc2cc3ccc(C)cc3nc2o1)c1ccc(OC)cc1
- AC50 [1]: 3.66 µM [rising, partial curve]

Compound: O=C(O)/C=C/C(=O)Nc1ccc(OC(F)(F)F)cc1
- cell number change: -16.6%
- AC50 [1]: 20.6 µM [falling, single point]

Compound: CCOc1ccccc1N1CCN(C(=O)c2cc3c(s2)CCC3)CC1
- cell number change: -14.1%
- AC50 [1]: 4.61 µM [rising, full curve]

Compound: O=C(O)c1ccc(N=C2NC(=O)C(CO)(CO)S2)cc1
- cell number change: 0.265%

Compound: CN(C)CCNC(=O)c1ccc(COCC(F)(F)F)cc1
- cell number change: -134%
- AC50 [2]: 25.9 µM [falling, partial curve]
- AC50 [1]: 25.9 µM [falling, partial curve]

Compound: Cc1ccc(S(=O)(=O)N2CCCC2)cc1C(=O)NCc1ccccc1CN1CCCC1
- cell number change: 13.7%
- AC50 [1]: 0.00651 µM [rising, full curve, poor fit]

Compound: O=C(CNC(=O)C1CCCCC1)Nc1ccc(F)c(Cl)c1
- cell number change: -31.9%

Compound: CCOC(=O)c1ccc(-n2ccnc2)c(NC(=O)c2ccc(Cl)cc2)c1
- cell number change: -0.705%
- AC50 [1]: 29.1 µM [rising, single point]

Compound: COc1ccccc1N(CC(=O)NC1CCCC1)C(=O)c1csnn1
- AC50 [1]: 9.2 µM [rising, partial curve, poor fit]

Compound: CC(C)NC(=O)c1onc(CSc2nc3ccccc3[nH]2)c1C(=O)NC(C)C
- cell number change: 20.1%
- AC50 [2]: 7.31 µM [rising, partial curve, poor fit]

Compound: Cc1ccc(C(=O)Nc2cccc(C(=O)NCc3ccccc3)c2)o1
- cell number change: -7.22%
- AC50 [1]: 0.291 µM [rising, full curve, poor fit]

Compound: Cc1ccc(N=Nc2c(C)[nH]n(C(N)=S)c2=O)cc1C
- cell number change: 4.55%

Compound: COc1cc(C(=O)Nc2ccc3c(c2)OCCO3)ccc1OC(C)C
- cell number change: 118%
- AC50 [2]: 1.16 µM [rising, full curve]
- AC50 [1]: 29.1 µM [rising, single point]

Compound: CCCCOc1ccc(C(=O)N2CCNC(=O)C2)cc1
- cell number change: -32.4%
- AC50 [2]: 0.013 µM [falling, full curve, poor fit]
- AC50 [1]: 6.51 µM [rising, single point]

Compound: CN(CC(=O)NC1CCCCCC1)S(=O)(=O)c1ccc(F)cc1
- cell number change: -1.13%
- AC50 [1]: 20.6 µM [rising, partial curve]

Compound: Cc1ccc(/C=C2/Sc3ccc(C(=O)NCCN4CCOCC4)cc3NC2=O)cc1
- cell number change: 2.85%

Compound: O=S(=O)(CCC1CCCCN1)c1ccccc1 (configuration not stated)
- cell number change: 19.1%

Compound: COc1ccc(NC(=S)N2CCN(S(=O)(=O)c3ccccc3)CC2)cc1OC
- cell number change: -0.99%
- AC50 [1]: 0.58 µM [rising, single point]

Compound: Cc1cc(F)ccc1S(=O)(=O)N1CCCOC1CNC(=O)C(=O)NCCc1ccccc1 (configuration not stated)
- cell number change: 23.4%
- AC50 [1]: 2.06 µM [rising, full curve]

Compound: NCCCCCC(=O)Nc1ccncc1
- cell number change: -44.6%
- AC50 [2]: 18.4 µM [falling, single point]
- AC50 [1]: 29.1 µM [falling, partial curve, poor fit]

Compound: Cc1noc(C)c1COc1cccc(C(=O)N2CCN(C/C=C/c3ccccc3)CC2)c1
- cell number change: -2.44%
- AC50 [1]: 16.4 µM [rising, partial curve]

Compound: Fc1ccc(-c2nc3nc4ccccc4nc3n2Cc2ccco2)cc1
- cell number change: -24.9%

Compound: C#CCCCCCCCCC(=O)NCCCC
- AC50 [2]: 6.51 µM [falling, single point]

Compound: Cc1ccc(C(=O)NCCCN2CCOCC2)c(Cl)c1
- cell number change: -1.46%

Compound: COc1cc(C(C)=O)ccc1OCc1cc(C(=O)N2CCSCC2)no1
- cell number change: 37.6%
- AC50 [2]: 0.231 µM [rising, full curve, poor fit]

Compound: CCOc1ccc2nc(NC(=O)CS(=O)(=O)c3ccccc3)sc2c1
- AC50 [1]: 0.651 µM [rising, single point]

Compound: CC(=O)Nc1ccc(CN2CCN(CC(C)C)C(CCO)C2)cc1 (configuration not stated)
- cell number change: 1.94%
- AC50 [1]: 29.1 µM [rising, single point]

Compound: COc1ccc(NC(=O)c2ccc3c(c2)OCO3)cc1[N+](=O)[O-]
- cell number change: -50.5%
- AC50 [2]: 16.4 µM [falling, single point]

Compound: S=C(NCc1ccco1)N1CCN(c2ccccc2Cl)CC1
- cell number change: 45.8%
- AC50 [2]: 3.26 µM [rising, full curve]
- AC50 [1]: 3.66 µM [rising, partial curve, poor fit]

Compound: O=C(Nc1ccc(N2CCCC2)cc1)c1cc2ccccc2o1
- cell number change: -52.5%
- AC50 [2]: 5.17 µM [falling, partial curve]
- AC50 [1]: 0.731 µM [falling, full curve, poor fit]

Compound: CN(C)c1ccc(C(c2ccc(N(C)C)cc2)c2ccc([N+](=O)[O-])cc2)cc1
- cell number change: -59.5%
- AC50 [2]: 14.6 µM [falling, partial curve, poor fit]
- AC50 [1]: 18.4 µM [falling, single point]

Compound: COC(=O)C(CC(=O)c1ccc(Br)cc1)n1ccnc1 (configuration not stated)
- cell number change: -157%
- AC50 [2]: 29.1 µM [falling, partial curve]
- AC50 [1]: 0.58 µM [falling, single point]

Compound: C[C@H](NC(N)=O)C(=O)OCC(=O)Nc1ccc(OC(F)F)cc1
- cell number change: 64.3%

Compound: CC(OC(=O)c1cccc(-n2cnnn2)c1)c1nc2ccccc2c(=O)[nH]1 (configuration not stated)
- cell number change: -2.08%
- AC50 [1]: 18.4 µM [rising, partial curve, poor fit]

Compound: O=C(CC(Nc1ccc(F)cc1)C(=O)OCC(=O)c1cccs1)c1ccccc1 (configuration not stated)
- cell number change: -19.4%
- AC50 [1]: 29.1 µM [falling, single point]

Compound: COc1ccc(-c2cn3cc(C(F)(F)F)cc(Cl)c3n2)cc1
- cell number change: -72.9%
- AC50 [2]: 1.46 µM [falling, partial curve]
- AC50 [1]: 0.651 µM [falling, single point]

Compound: CCOc1ccc(OCC(=O)OCC(=O)N(CC(C)C)c2c(N)n(Cc3ccccc3)c(=O)[nH]c2=O)cc1
- cell number change: 1.04%
- AC50 [2]: 0.058 µM [falling, full curve, poor fit]

Compound: O=C(NCc1ccc2c(c1)OCO2)c1ccc2c(c1)OCCO2
- cell number change: 56.5%
- AC50 [2]: 18.4 µM [rising, single point]

Compound: O=C(O)c1ccc(CNC(=O)c2ccc3c(c2)OCCO3)cc1
- cell number change: 28.6%
- AC50 [1]: 29.1 µM [rising, single point]

Compound: Cc1cccc(N2CCN(CCCNC(=O)C3CCCN(c4ncnc5c4nc4n5CCCCC4)C3)CC2C)c1 (configuration not stated)
- cell number change: 16.4%
- AC50 [1]: 0.116 µM [rising, full curve, poor fit]

Compound: C=CCNc1nc(C(=O)OCC(=O)c2ccc(C)c([N+](=O)[O-])c2)cs1
- cell number change: -0.758%
- AC50 [2]: 0.58 µM [rising, single point]
- AC50 [1]: 6.51 µM [rising, single point]

Compound: CCN(C1CCS(=O)(=O)C1)S(=O)(=O)c1cccc([N+](=O)[O-])c1 (configuration not stated)
- cell number change: -8.98%
- AC50 [1]: 0.092 µM [falling, full curve, poor fit]

Compound: COc1ccc(S(=O)(=O)N2CCOCC2)cc1NC(=O)Cc1ccc(Cl)c(Cl)c1
- AC50 [2]: 0.651 µM [falling, full curve]

Compound: O=C(COc1cccnc1[N+](=O)[O-])NCCc1ccc(F)cc1
- cell number change: 9.93%
- AC50 [1]: 13 µM [rising, partial curve]

Compound: CSc1ccc(S(=O)(=O)NCC(=O)OC2CCOC2=O)cc1[N+](=O)[O-] (configuration not stated)
- cell number change: -7%
- AC50 [2]: 0.0731 µM [falling, full curve, poor fit]

Compound: C=CCC(=O)NC1CCCc2c1cnn2-c1cc(F)cc(F)c1 (configuration not stated)
- cell number change: -37.9%
- AC50 [2]: 0.206 µM [falling, full curve]

Compound: O=C(NNc1nc(-c2ccc(Cl)cc2)cs1)c1ccco1
- cell number change: -76.5%
- AC50 [2]: 16.4 µM [falling, partial curve]
- AC50 [1]: 29.1 µM [falling, single point]

Compound: COc1ccccc1-n1cnnc1SCC(=O)Nc1cccc(S(=O)(=O)N2CCCCC2)c1
- cell number change: -11.2%
- AC50 [2]: 6.51 µM [rising, single point]

Compound: CCCC(=O)NC(Nc1cc(C(F)(F)F)ccc1Cl)C(Cl)(Cl)Cl (configuration not stated)
- cell number change: -53.2%
- AC50 [2]: 29.1 µM [falling, single point]
- AC50 [1]: 1.84 µM [falling, partial curve]

Compound: COc1ccc(C2=NN(C(=O)/C=C/c3ccccc3)C(c3ccccc3)C2)c(OC(C)=O)c1 (configuration not stated)
- cell number change: -20.1%
- AC50 [1]: 29.1 µM [rising, single point]

Compound: Cc1csc(=O)n1CCC(=O)O
- cell number change: 19.3%

Compound: O=C(COC(=O)c1ccco1)Nc1cccc(Br)c1
- cell number change: -13.9%
- AC50 [1]: 0.517 µM [falling, full curve]
